Laboratory results: PubChem BioAssay AID493014 (National Center for Advancing Translational Sciences (NCATS), 2011)
The whole screen tested about 340,000 compounds, of which about 170 (0.05%) were called active. This list was built around the results that the source calls inconclusive (neither active nor inactive); the mix of calls is not that of the screen. Calls come from the whole dose curve; as a rule, active = well fitted inhibition curve with a large enough effect in the signal ratio, with a control signal flat (not every such curve was filed as active); inconclusive = small, poorly fitted or top-dose-only effect, or effect the other way, or a change in a side signal; inactive = flat fitted curve, though single readings scatter; the % refers to the signal ratio. Potencies of inconclusive entries are doubtful fits and often do not repeat.

Experiment: qHTS Assay to Find Inhibitors of Chronic Active B-Cell Receptor Signaling;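 for activity change, negative = inhibition: plate controls were basal doxycycline-induced cells for no effect and cells given 10 µM MG132 for full effect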
Settings: ABC-DLBCL IkBa-CBG/CBR reporter, luminescence ratio (green luciferase fused to IkBa over red control in TMD8 lymphoma cells), 4 h; activity change, negative = inhibition: at 46.1 µM (top of the series)
In short: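 Cell line TMD8 (human ABC DLBCL), stably expressing tet-inducible CBG68-IkBa fusion and CBR; IMDM/0.5% FBS; cpd up to 46 uM; dox induction, 4 h, 37C/5% CO2; dual luminescence; green/red ratio; MG132 control.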
Potency is the fitted concentration of half-maximal effect.

Compound	Potency	activity change, negative = inhibition
COc1ccccc1OCc1csc(NC(=O)c2ccco2)n1	inconclusive: 12.6 µM [falling, partial curve]	
CC(=O)N1N=C(c2c(-c3ccccc3)c3cc(Br)ccc3[nH]c2=O)CC1c1ccco1 (stereo unspecified)		inconclusive: -14.6%
CN(C(=O)c1cccc(C#N)c1)c1nnc(-c2ccccn2)s1		inconclusive: 15.3%
O=c1[nH][nH]c(-c2ccccc2O)c1C(C[N+](=O)[O-])c1cccc(Cl)c1 (stereo unspecified)	inconclusive: 20.6 µM [cytotoxic, single point]	
Cc1cc(=O)n2nc(-c3ccc(C(F)(F)F)cc3)sc2n1		inconclusive: 18.6%
CCOC(=O)c1c(N)n(-c2ccc(C)c(C)c2)c2nc3ccccc3nc12		inactive
O=C(Nc1ccc(F)c(Cl)c1)Nc1cnccn1		inconclusive: -0.275%
COC(=O)c1ccc(C)c(NC(=O)c2c(-c3ccccc3)noc2C)c1		inconclusive: 3.52%
Cc1ccc(-c2nc(C(=O)NCCCN3CCOCC3)cc3c2[nH]c2ccccc23)cc1	inconclusive: 3.16 µM [rising, partial curve, poor fit]	
Cc1ccc(NC(=O)c2cc(NC(=O)CCCC(=O)O)ccc2Cl)cc1Cl	inconclusive: 15.8 µM [falling, partial curve]	
COC(CN(C(=O)CCl)C(C(=O)NC1CCCCC1)c1ccc(C)cc1)OC (stereo unspecified)		inconclusive: -17.5%
CCN1CCN(C(=O)c2ccc(N3CC4CC(C3)c3cccc(=O)n3C4)c([N+](=O)[O-])c2)CC1 (stereo unspecified)		inconclusive: 16.6%
Cc1ccc(CN2CCN(/N=C/c3cccs3)CC2)cc1		inactive
O=C1c2ccccc2S(=O)(=O)N1CC1CC(c2ccc(Cl)cc2)=NO1 (stereo unspecified)		inactive
COc1cccc(C2N(c3ccccc3)CCN2c2ccccc2)c1OC		inconclusive: 12.9%
O=C(Nc1ccc(N2CCOCC2)cc1)c1ccc(S(=O)(=O)NCc2ccco2)cc1		inconclusive: 3.32%
N#Cc1ccc(-c2ccc(OCC(O)CN3CCCCC3)cc2)cc1 (stereo unspecified)		inconclusive: 1.39%
CC(C)CNC(=O)c1ccccc1NC(=O)CCSc1ccccc1	inconclusive: 3.66 µM [falling, partial curve, poor fit]	
CC(=O)c1ccc(NC(=O)c2ccc3nc(C)sc3c2)cc1		inconclusive: -1.63%
Cc1noc(C)c1S(=O)(=O)N1CCCCC1		inconclusive: -2.15%
CCn1c(=O)cc(SCC(=O)Nc2cc(OC)c(OC)c(OC)c2)c2ccccc21	inconclusive: 25.1 µM [falling, partial curve, poor fit]	

Compound	Potency	activity change, negative = inhibition
COc1ccc(Cn2c(=O)c3c(nc(NCCO)n3C)n(C)c2=O)cc1		inactive
Cc1ccc(/C=C/c2nc3ccccc3c(=O)[nH]2)cc1		inactive
COc1ccc2ccc(O)c(CN(C)CC(=O)Nc3ccccc3C(F)(F)F)c2c1		inactive
CCOc1ccc(-c2cc(C(=O)NCCCn3ccnc3)c3cc(Br)ccc3n2)cc1	inconclusive: 15.8 µM [rising, partial curve, poor fit]	
CCN(CC)S(=O)(=O)c1ccc(C(=O)OCCN2C(=O)CCC2=O)cc1		inconclusive: 4.63%
C=CCn1c(N)c(S(=O)(=O)c2cccs2)c2nc3ccccc3nc21		inconclusive: 16.6%
Cn1nc(N)c2c(-c3ccc(Cl)cc3)c(C#N)c(N)nc21		inconclusive: -11.3%
O=C(Nc1cccc(NC(=O)N2CCN(c3ccccc3)CC2)c1)N1CCN(c2ccccc2)CC1	inconclusive: 1.78 µM [falling, full curve]	
CC(=O)NC1C(=O)N(CCN2CCOCC2)c2ccc(C)cc21 (stereo unspecified)		inactive
CCN1CCc2c(sc(NC(=S)NC(=O)c3ccccc3)c2C#N)C1	inconclusive: 22.4 µM [falling, single point]	
Cc1ccc(-c2nc(N)sc2CC(=O)OCC(=O)NC2CCCC(C)C2C)cc1 (stereo unspecified)		inactive
CCC(=O)N1CCN(c2ccc(NC(=O)COc3ccccc3[N+](=O)[O-])cc2)CC1		inactive
O=C(NNC(=O)c1cccc([N+](=O)[O-])c1)c1ccncc1	inconclusive: 17.8 µM [falling, partial curve]	
O=C(CCN1CCC(c2ccccc2)C1)c1ccc2c(c1)OCCO2 (stereo unspecified)	inconclusive: 10.3 µM [rising, partial curve, poor fit]	
Cc1ccc(CSc2nnc(Cn3c(=O)sc4ccccc43)n2C)cc1		inconclusive: -6.63%
CSc1cccc(NC(=O)C(C)C)c1		inconclusive: 9.14%
CCOC(=O)c1sc(NCCNc2nc(C)c(C(=O)OCC)s2)nc1C		inconclusive: -5.21%
Cc1ccc(-n2nnnc2SCC(=O)NNC(=O)c2ccco2)c(C)c1		inactive
Cc1cc(C)c(NC(=O)c2ccc(S(=O)(=O)N(C)C)cc2)c(C)n1		inconclusive: -2.68%
COc1ccc(/C=N/Nc2nc(C)cc(-c3ccccc3)n2)cc1OC		inconclusive: 9.26%
COc1cccc2sc(N(CCCN(C)C)C(=O)CCS(=O)(=O)c3ccccc3)nc12		inconclusive: 26.7%

Looked up above.
In activity change, negative = inhibition, O=C(Nc1ccc(F)c(Cl)c1)Nc1cnccn1 shows inconclusive: -0.275%
In activity change, negative = inhibition, Cc1cc(=O)n2nc(-c3ccc(C(F)(F)F)cc3)sc2n1 shows inconclusive: 18.6%

Next part.

Compound	Potency	activity change, negative = inhibition
N/C(=N\OC(=O)CCc1ccccc1)c1cccc(Br)c1		inconclusive: 10.1%
Cc1ccc(OC(=O)c2ccccc2C(=O)OCC(F)(F)C(F)F)cc1		inconclusive: 11.2%
C=CCc1cc(Cl)ccc1OCCOCCNC(C)CC (stereo unspecified)	inconclusive: 22.4 µM [falling, single point]	
CCOC(=O)c1sc(N/N=C/c2ccc(N(C)C)cc2)nc1C		inactive
Cc1cccc2nc(COc3ccc(Cl)c4cccnc34)cn12	inconclusive: 35.5 µM [rising, single point]	
Cc1ccc(S(=O)(=O)Nc2ccc(C(=O)Nc3ccncc3)cc2)cc1		inactive
O=C(Nc1ccccc1C(=O)O)c1cc(S(=O)(=O)N2CCCCC2)c(Cl)cc1Cl		inconclusive: -1.92%
CC(C)(C)NC(=O)c1cccc2c1OC(C)(C)C2		inconclusive: 0.858%
O=C(CSc1nc(-c2cccs2)cc(C(F)(F)F)n1)Nc1cc(OCC(F)(F)F)cc([N+](=O)[O-])c1		inactive
CCN(Cc1ccc(OC)c(F)c1)C(C)C(=O)Nc1ccc(S(=O)(=O)N2CCCC2)cc1 (stereo unspecified)		inconclusive: -0.92%
S=C(NCCc1ccc(Cl)cc1)NCc1ccccc1		inconclusive: -4.54%
O=C(NCCc1ccc2c(c1)OCCO2)c1ccccn1	inconclusive: 35.5 µM [falling, single point]	
O=C(NCCN1CCOCC1)c1cc(-c2ccc(Br)cc2)on1		inconclusive: 12.1%
N#CC1CN(C(c2ccccc2)c2ccccc2)C1		inactive
CN1CCN(S(=O)(=O)c2ccc(NC(=O)COc3ccccc3Cl)cc2)CC1		inactive
O=C(NCc1cccnc1)c1ccc(COc2ccccc2Cl)cc1		inactive
Clc1ccc(-c2cc3ccccc3nc2N2CCOCC2)cc1		inconclusive: 17.4%
CN(C)c1nc(C#N)nc(N2CCOCC2)n1		inactive
COc1ccc(OC)c(NC(=O)NCCN2CCN(c3ccccc3)CC2)c1		inactive
Cc1ccc(CNc2oc(-c3ccco3)nc2S(=O)(=O)c2ccccc2)cc1		inconclusive: 8.12%
Cc1ccc2c(c1)C(=O)C(=O)N2CCOc1ccccc1	inconclusive: 35.5 µM [falling, partial curve, poor fit]	

Reformatted: 4 of the compounds above.
Compound | Potency | activity change, negative = inhibition
CC(C)CNC(=O)c1ccccc1NC(=O)CCSc1ccccc1 | inconclusive: 3.66 µM [falling, partial curve, poor fit] | 
CC(=O)c1ccc(NC(=O)c2ccc3nc(C)sc3c2)cc1 |  | inconclusive: -1.63%
Cc1noc(C)c1S(=O)(=O)N1CCCCC1 |  | inconclusive: -2.15%
CCn1c(=O)cc(SCC(=O)Nc2cc(OC)c(OC)c(OC)c2)c2ccccc21 | inconclusive: 25.1 µM [falling, partial curve, poor fit] | 

(continued)

Compound	Potency	activity change, negative = inhibition
CC(NC(=O)CSc1nc2ccccc2n1CCC#N)c1ccc(F)cc1 (stereo unspecified)	inconclusive: 32.6 µM [falling, single point]	
CN1C(=O)Cc2cc(S(=O)(=O)NCc3cccs3)ccc21		inconclusive: 0.281%
O=C(c1ccc2noc(-c3ccccc3)c2c1)N1CCN(c2ccccc2)CC1	inconclusive: 18.4 µM [falling, single point]	
O=C(O)C(c1ccccc1)N1C(=O)/C(=C/c2cccs2)SC1=S (stereo unspecified)	inconclusive: 5.01 µM [falling, single point]	
COc1cccc(CNC2CCCCCCC2)c1OC		inconclusive: 9.06%
COc1ccc(OC)c(NC(=O)c2cc(-c3ccc(C)cc3O)n[nH]2)c1	inconclusive: 25.9 µM [falling, partial curve]	
COc1cc(C(=O)O/N=C2\C=CC(=O)C=C2C)cc(OC)c1OC	inconclusive: 3.26 µM [falling, full curve]	
COc1cc(/C=N/O)ccc1Oc1cnccn1		inconclusive: 3.81%
O=C(NCCSc1ncc(-c2ccc(F)cc2)[nH]1)c1ccc2c(c1)OCO2		inconclusive: 5.54%
Clc1ccccc1OCc1nc(-c2ccccn2)no1	inconclusive: 16.4 µM [falling, single point]	
CCOc1cc2c(cc1OCC)C(c1ccccc1)N(c1ccc(C(=O)O)cc1)C(=O)C2 (stereo unspecified)		inconclusive: 6.66%
CCCCNC(=O)/C=C/c1cccs1	inconclusive: 29.1 µM [falling, partial curve, poor fit]	
COc1ccccc1NC(=S)NNC(=O)c1nn(C)c(C)c1Br	inconclusive: 3.66 µM [falling, single point]	
Brc1ccc(-c2ncc(-c3ccccc3)cn2)cc1	inconclusive: 20.6 µM [falling, single point]	
COc1ccc(S(=O)(=O)N2CCCCC2)cc1NC(=O)COc1ccccc1		inconclusive: 12.8%
CCOC(=O)c1sc(NC(=O)CSc2nnnn2-c2ccccc2)c(C(=O)OCC)c1C		inconclusive: -4.71%
Fc1cccc(-c2nc(-c3ccncc3)no2)c1		inconclusive: 3.89%
Cc1cccc(OCC(=O)Nc2ccc3c(c2)C(=O)NC3=O)c1	inconclusive: 8.91 µM [falling, partial curve]	
